The list does not hold the whole screen: it gathers tests that were run many times, whatever their T/C, doses with no T/C, and many T/C values between a quarter and a half above the control. Further doses and runs are listed elsewhere. T/C: endpoint of the treated group in % of that of the vehicle group. Some entries give survivors of the animals treated and no T/C: the source files T/C as zero there, which appears to mark a toxic dose or a test without result, not a measured value. Some survivor counts are full or nearly so, which does not show that the dose was tolerated: the source hardly ever lists a survival T/C far under the control, and the zero likely stands for such cases as well. Survivors were counted at the toxicity check, usually on the fifth day, unless a day is given; later deaths do not show. Schedule codes are those of the source, taken here to give the interval after Q, in days (D) or hours (H), and the number of doses after X. Some entries hold several experiments; their values stand side by side, smallest first. For survival time, the PubChem record calls one and a half times the control and up active, and a quarter to a half above the control has no call in these data; cut-offs in other NCI protocols can differ. Some T/C values are followed by the survivors on the day toxicity was checked, most often the fifth; where none is given, no animal had died by that day. Non-standard residues stand in square brackets, D forms with d. Residues, ends and D or L forms follow the SMILES beside them. *: point of attachment. NMeY = CN[CH](Cc1ccc(O)cc1)C(=O)O; Bn = c1ccc(C*)cc1
Test system: BDF1 mice, P388 leukemia ip, median survival T/C
Assay: NCI In Vivo Anticancer Drug Screen. Data for tumor model P388 Leukemia (intraperitoneal) in B6D2F1 (BDF1) mice
Conditions: T/C endpoint: median survival time, higher T/C = longer survival
How it was run: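 Each value expresses how treatment altered survival: treated-mouse outcome over vehicle-mouse outcome, both groups bearing the transplanted tumour.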

[1] = dose: 25.0 mg/kg/injection, schedule: Q04DX003 (ip), vehicle: saline
[2] = dose: 200.0 mg/kg/injection, schedule: Q01DX009 (ip), vehicle: saline with Tween-80
[3] = dose: 200.0 mg/kg/injection, schedule: Q01DX009 (ip), vehicle: saline

## c1ccc([As+](c2ccccc2)(c2ccccc2)c2ccccc2)cc1
dose: 0.24 mg/kg/injection, schedule: Q04DX003 (ip), vehicle: saline
  T/C: 125 % of control
dose: 0.36 mg/kg/injection, schedule: Q01DX009 (ip), vehicle: saline
  T/C: 131 % of control
dose: 0.82 mg/kg/injection, schedule: Q01DX009 (ip), vehicle: saline
  T/C: 133 % of control
dose: 0.82 mg/kg/injection, schedule: Q04DX003 (ip), vehicle: saline
  survivor count: 5 of 6
dose: 1.2 mg/kg/injection, schedule: Q01DX009 (ip), vehicle: saline
  T/C: 137 % of control
dose: 1.87 mg/kg/injection, schedule: Q01DX009 (ip), vehicle: saline
  T/C: 146 % of control
dose: 3.3 mg/kg/injection, schedule: Q04DX003 (ip), vehicle: saline
  T/C: 140 and 145 % of control
dose: 7.5 mg/kg/injection, schedule: Q01DX009 (ip), vehicle: saline
  survivor count: 5 of 6
dose: 7.5 mg/kg/injection, schedule: Q04DX003 (ip), vehicle: saline
  T/C: 140 % of control
dose: 11.0 mg/kg/injection, schedule: Q04DX003 (ip), vehicle: saline
  survivor count: 2 of 6
dose: 17.0 mg/kg/injection, schedule: Q04DX003 (ip), vehicle: saline
  survivor count: 1 of 6
[1]
  survivor count: 0 of 6

## CC(C1CCC/C(=N\NC(N)=O)C1)[N+](=O)[O-] (stereo unspecified)
dose: 0.78 mg/kg/injection, schedule: Q01DX009 (ip), vehicle: saline with Tween-80
  T/C: 134 % of control
dose: 12.5 mg/kg/injection, schedule: Q01DX009 (ip), vehicle: saline with Tween-80
  survivor count: 6 of 6
dose: 25.0 mg/kg/injection, schedule: Q01DX009 (ip), vehicle: saline with Tween-80
  survivor count: 6 of 6
dose: 50.0 mg/kg/injection, schedule: Q01DX009 (ip), vehicle: saline with Tween-80
  survivor count: 5 of 6 and 6 of 6
dose: 100.0 mg/kg/injection, schedule: Q01DX009 (ip), vehicle: saline with Tween-80
  survivor count: 5 of 6
[2]
  survivor count: 1 of 6

## CCC1CN2CCc3cc(O)c(O)cc3C2CC1CC1NCCc2c1[nH]c1ccc(O)cc21 (stereo unspecified)
dose: 0.25 mg/kg/injection, schedule: Q01DX009 (ip), vehicle: Klucel (hydroxypropylcellulose) (HPC)
  T/C: 139 % of control
dose: 0.5 mg/kg/injection, schedule: Q01DX009 (ip), vehicle: Klucel (hydroxypropylcellulose) (HPC)
  T/C: 139 % of control

## CCCCCCCCCC(O)CCCCC (stereo unspecified)
[2]
  survivor count: 5 of 6
[3]
  T/C: 130 % of control
dose: 300.0 mg/kg/injection, schedule: Q01DX009 (ip), vehicle: saline with Tween-80
  survivor count: 4 of 6
dose: 400.0 mg/kg/injection, schedule: Q01DX009 (ip), vehicle: saline
  survivor count: 3 of 6

## OCCC[P+](c1ccccc1)(c1ccccc1)c1ccccc1
dose: 200.0 mg/kg/injection, schedule: Q04DX003 (ip), vehicle: Klucel (hydroxypropylcellulose) (HPC)
  survivor count: 0 of 6

## COCCOCCN1CCN(CCCN2c3ccccc3Sc3ccc(C(F)(F)F)cc32)CC1
dose: 12.5 mg/kg/injection, schedule: Q04DX003 (ip), vehicle: saline
  T/C: 144 % of control
[1]
  T/C: 127 % of control [5 of 6 alive]
dose: 50.0 mg/kg/injection, schedule: Q04DX003 (ip), vehicle: saline
  survivor count: 3 of 6 and 5 of 6
dose: 100.0 mg/kg/injection, schedule: Q04DX003 (ip), vehicle: saline
  survivor count: 0 of 6 and 3 of 6

## Cc1nc(-c2ccc(N=Cc3ccc(N(CCOS(C)(=O)=O)CCOS(C)(=O)=O)cc3C)cc2)cs1
dose: 37.5 mg/kg/injection, schedule: Q01DX009 (ip), vehicle: Klucel (hydroxypropylcellulose) (HPC)
  T/C: 133 % of control

## CC1(CNC(=O)C(=O)NCC2(C)CO2)CO1 (stereo unspecified)
dose: 25.0 mg/kg/injection, schedule: Q04DX003 (ip), vehicle: saline with Tween-80
  T/C: 129 % of control
[2]
  survivor count: 4 of 6
dose: 400.0 mg/kg/injection, schedule: Q01DX009 (ip), vehicle: saline with Tween-80
  survivor count: 3 of 6

## Cc1c2oc3c(C)c([N+](=O)[O-])cc(C(=O)NC4C(=O)NC(C(C)C)C(=O)N5CCCC5C(=O)N(C)CC(=O)N(C)C(C(C)C)C(=O)OC4C)c3nc-2c(C(=O)NC2C(=O)NC(C(C)C)C(=O)N3CCCC3C(=O)N(C)CC(=O)N(C)C(C(C)C)C(=O)OC2C)c(N)c1=O (stereo unspecified)
dose: 100.0 micrograms/kg/injection, schedule: Q01DX009 (ip), vehicle: saline + alcohol
  T/C: 143 % of control
dose: 200.0 micrograms/kg/injection, schedule: Q01DX009 (ip), vehicle: saline + alcohol
  survivor count: 8 of 8
dose: 225.0 micrograms/kg/injection, schedule: Q04DX003 (ip), vehicle: saline + alcohol
  T/C: 132 % of control
dose: 300.0 micrograms/kg/injection, schedule: Q01DX009 (ip), vehicle: saline + alcohol
  survivor count: 8 of 8
dose: 300.0 micrograms/kg/injection, schedule: Q04DX003 (ip), vehicle: saline + alcohol
  T/C: 128 % of control
dose: 400.0 micrograms/kg/injection, schedule: Q01DX009 (ip), vehicle: saline + alcohol
  survivor count: 8 of 8
dose: 900.0 micrograms/kg/injection, schedule: Q04DX003 (ip), vehicle: saline + alcohol
  survivor count: 8 of 8

## O=S1(=O)C=Cc2ccccc21
dose: 400.0 mg/kg/injection, schedule: Q04DX003 (ip), vehicle: Klucel (hydroxypropylcellulose) (HPC)
  survivor count: 0 of 6

## N#CSc1ncnc2nc[nH]c12
dose: 6.0 mg/kg/injection, schedule: Q01DX009 (ip), vehicle: alkali diluted with saline
  T/C: 125 % of control
dose: 25.0 mg/kg/injection, schedule: Q04DX003 (ip), vehicle: alkali diluted with saline
  survivor count: 2 of 6
dose: 50.0 mg/kg/injection, schedule: Q04DX003 (ip), vehicle: alkali diluted with saline
  survivor count: 0 of 6

## Cn1/c2cc/c1=C(\c1ccc(S(=O)(=O)O)cc1)c1ccc([n-]1)/C(c1ccc(S(=O)(=O)O)cc1)=c1/cc/c([nH]1)=C(\c1ccc(S(=O)(=O)O)cc1)c1ccc([n-]1)/C=2c1ccc(S(=O)(=O)O)cc1.O.O=S(=O)(O)C(F)(F)F.[Cu+2]
dose: 12.5 mg/kg/injection, schedule: Q01DX009 (ip), vehicle: saline
  T/C: 126 % of control
dose: 25.0 mg/kg/injection, schedule: Q01DX009 (ip), vehicle: saline
  T/C: 126 % of control

## C(#C[P+]1(c2ccccc2)C=C(c2ccccc2)OC(c2ccccc2)=C1)c1ccccc1
dose: 100.0 mg/kg/injection, schedule: Q01DX005 (ip), vehicle: saline with Tween-80
  survivor count: 3 of 5
dose: 200.0 mg/kg/injection, schedule: Q01DX005 (ip), vehicle: saline with Tween-80
  survivor count: 0 of 5

## CCCCNC(C)C1(O)Cc2c(O)c3c(c(O)c2C(OC2CC(N)C(O)C(C)O2)C1)C(=O)c1c(OC)cccc1C3=O (stereo unspecified)
dose: 5.0 mg/kg/injection, schedule: Q01DX009 (ip), vehicle: water
  T/C: 146 % of control
dose: 80.0 mg/kg/injection, schedule: Q01DX009 (ip), vehicle: water
  T/C: 133 % of control
dose: 160.0 mg/kg/injection, schedule: Q01DX009 (ip), vehicle: water
  survivor count: 5 of 6

## COc1ccc(/C=C/C(=N\O)c2ccc(OC)c(OC)c2)cc1OC
[3]
  survivor count: 5 of 6

## CNC(Cc1ccc(OCc2ccccc2)cc1)C(=O)NC(CC(C)C)C(=O)OC (stereo unspecified) (H-[NMeY](Bn)-Leu-OMe; configuration not given here)
dose: 400.0 mg/kg/injection, schedule: Q04DX003 (ip), vehicle: saline
  survivor count: 2 of 6

## O=N[O-].O=N[O-].[Co].[NH-]CC[N-]CCO.[NH-]CC[N-]CCO
dose: 25.0 mg/kg/injection, schedule: Q01DX009 (ip), vehicle: water
  T/C: 94 [5 of 6 alive], 97, 118, 129 % of control
dose: 50.0 mg/kg/injection, schedule: Q01DX009 (ip), vehicle: water
  survivor count: 5 of 6
dose: 100.0 mg/kg/injection, schedule: Q01DX009 (ip), vehicle: water
  survivor count: 1 of 6 and 3 of 6
dose: 200.0 mg/kg/injection, schedule: Q01DX009 (ip), vehicle: water
  survivor count: 1 of 6

## Cc1c(C)c2c(N)c3ccccc3nc2c2ccccc12
dose: 50.0 mg/kg/injection, schedule: Q01DX001 (ip), vehicle: saline with Tween-80
  T/C: 131 % of control
dose: 100.0 mg/kg/injection, schedule: Q01DX001 (ip), vehicle: saline with Tween-80
  survivor count: 0 of 6 and 3 of 6

## N#CC(C#N)c1nc2cccnc2s1
dose: 400.0 mg/kg/injection, schedule: Q04DX003 (ip), vehicle: saline with Tween-80
  survivor count: 1 of 6

## O=C=Nc1ccc(CCc2ccc(N=C=O)cc2)cc1
[2]
  T/C: 130 % of control

Source: PubChem BioAssay AID328 (DTP/NCI, 2004)
